Measurements reported in PubChem BioAssay AID1053208 (Peter MacCallum Cancer Centre, 2014).
The whole screen tested about 17,000 reagents; this is a random part of them. 788 of them (4.7%) were called active. 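Calls rest on z-score classes alone; an extra cut-off of viability at most 70% of control was not applied to them.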 Unmarked entries are inactive. Not all columns of the deposit are shown.

Test: 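Genes whose silencing cuts survival of bone tumour cells only with doxorubicin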 (primary screen)
Cell system: mouse osteosarcoma cells, early-passage culture from an engineered mouse model of fibroblastic bone tumour
Knock-down reagent: siRNA pool against mouse genes, 40 nM
Timing: about 120 h (48 h before drug, then 72 h with drug)
Challenge: doxorubicin 100 nM for 72 h, roughly 30-40% inhibitory dose
Measured: 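Luminescent ATP signal taken as viability with or without 100 nM doxorubicin for 72 h; mean of two wells set against non-targeting siRNA and turned into robust z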
Reading the numbers: viability z-score with doxorubicin: higher = more viable cells under doxorubicin; viability z-score without drug: higher = more viable cells with knock-down alone
Rule for the call: 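Called active if knock-down leaves viability unchanged without drug (z within -2 to 2) but lowers it with doxorubicin (z at or under -2)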

| target gene | combined z-score class | viability z-score with doxorubicin | viability z-score without drug |
| --- | --- | --- | --- |
| Zfp62 | no change with or without drug | 0.79 | 1.85 |
| Folh1 | no change with or without drug | -0.79 | 1.18 |
| Gpcpd1 | high cell count without drug only | -0.45 | 2.19 |
| Nsmce1 | no change with or without drug | -0.22 | -0.34 |
| Myl9 | no change with or without drug | 0.56 | -0.51 |
| Cd200 | no change with or without drug | 0.34 | 0.51 |
| Cd300ld | no change with or without drug | -0.11 | 0.84 |
| Mfsd6l | no change with or without drug | 0.22 | 0.17 |
| Vmn1r148 | no change with or without drug | -1.8 | -1.85 |
| Rigi | no change with or without drug | -0.45 | 0.67 |
| Ocm | no change with or without drug | 0.79 | 0.51 |
| Cacna1f | no change with or without drug | 0.67 | 0.51 |
| Nup93 | no change with or without drug | 0.79 | 0 |
| Klhdc2 | no change with or without drug | 0.22 | 0.84 |
| Cd69 | no change with or without drug | 0.9 | 0.84 |
| Itgb1bp2 | no change with or without drug | -0.79 | -1.01 |
| Inpp5b | no change with or without drug | 1.01 | 0 |
| Diras1 | no change with or without drug | 0.79 | -0.17 |
| Poglut3 | no change with or without drug | -0.22 | -0.51 |
| Tyk2 | no change with or without drug | -0.67 | 1.18 |
| Mtrr | no change with or without drug | -0.34 | -1.18 |

Look-ups from the list:
Value for Rigi in “viability z-score without drug”: 0.67
Under “viability z-score with doxorubicin”, Diras1 reads 0.79
Entry of Myl9 in “viability z-score with doxorubicin”: 0.56
Value of Klhdc2 under “viability z-score without drug”: 0.84
Under “viability z-score without drug”, Folh1 reads 1.18
Entry of Cd69 under “combined z-score class”: no change with or without drug

The results go on.
| target gene | combined z-score class | viability z-score with doxorubicin | viability z-score without drug |
| --- | --- | --- | --- |
| Ncor2 | no change with or without drug | 1.24 | -0.51 |
| Parp2 | high cell count with doxorubicin only | 2.25 | 0 |
| Kifc2 | no change with or without drug | 0.56 | 0.34 |
| Adamts18 | no change with or without drug | 0.22 | 0.51 |
| Rps4x | low cell count with and without drug | -4.27 | -4.38 |
| BC016579 | no change with or without drug | 0.34 | 0.51 |
| Rnft1 | no change with or without drug | -0.67 | -0.17 |
| Camk1 | no change with or without drug | -0.67 | 0.17 |
| Or10a3b | no change with or without drug | 0.22 | 0.17 |
| Or5k3 | no change with or without drug | -1.35 | -0.51 |
| Krt34 | no change with or without drug | -1.69 | -1.18 |
| Abcb8 | no change with or without drug | 0.22 | -0.17 |
| Pcdha1 | no change with or without drug | -1.57 | -0.84 |
| Zmiz1 | high cell count with doxorubicin only | 2.02 | -0.51 |
| Ca2 | no change with or without drug | 0.22 | 0.51 |
| H2bc4 | no change with or without drug | 0.45 | 0.51 |
| Mettl25b | no change with or without drug | 1.35 | -0.17 |
| Foxe1 | no change with or without drug | 0.45 | 0.84 |
| Rictor | no change with or without drug | 0 | 0.17 |
| Slc25a19 | no change with or without drug | -0.67 | 0.84 |
| Alas1 | no change with or without drug | 0.22 | -1.01 |
| Gpr87 | no change with or without drug | 0.9 | 0.51 |
| Casp8ap2 | low cell count with doxorubicin only (active) | -2.02 | -0.84 |
| Tmx3 | no change with or without drug | -0.11 | -1.01 |
| Flt3l | no change with or without drug | -1.35 | 0.34 |
| Sardh | no change with or without drug | 1.35 | 1.52 |
| Pcdhga8 | low cell count with doxorubicin only (active) | -2.14 | -0.51 |
| Or5p6 | no change with or without drug | 0.22 | -0.17 |
| Ush1c | no change with or without drug | -1.35 | -0.17 |
